From article PMC4254994 (PLoS ONE, 2014) come the findings set out here.

Amino acid sequences for entries named in this document (tags omitted).
UniProt A0R5Z0: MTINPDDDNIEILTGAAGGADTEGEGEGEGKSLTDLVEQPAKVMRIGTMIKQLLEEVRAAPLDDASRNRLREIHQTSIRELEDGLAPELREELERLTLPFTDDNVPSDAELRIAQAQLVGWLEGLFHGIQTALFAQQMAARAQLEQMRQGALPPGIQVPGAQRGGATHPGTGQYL

These are yes or no findings as the source states them, for the method shown. Some entries that bind do so weakly or less than the wild type.

In assay [1] the target is T18-MsmΔ7PrcA (open-gate variant of the M. smegmatis proteasome α-subunit) (Mycobacterium smegmatis MC2-155) (UniProt A0QZ46). In words: two-hybrid.
Assay [2] has as its target T18-MsmPrcA (Msmeg_3894, proteasome α-subunit of Mycobacterium smegmatis) (Mycobacterium smegmatis MC2-155) (UniProt A0QZ46). In words: two-hybrid.

Turning to “T25-MsmBpa (Msmeg_6365, Bpa homolog of Mycobacterium smegmatis) (from UniProt A0R5Z0 1-175)”, the binding result in assay [1] and in assay [2] was “binds” each time.
